Measured values reported in article PMC11672691.
No constants are given. Whether binding was seen depends on the method and setting. Binding seen in cells or lysates may run through a third protein. These calls come from enrichment with a bait or labelling near it, and not all partners need be listed. Tags and fused reporters may be left off the sequences shown.

Sequences of proteins named here, by UniProt entry; tags and fusion partners are left off. Residues count along the entry.
UniProt Q9Y4W6, residues 67-797: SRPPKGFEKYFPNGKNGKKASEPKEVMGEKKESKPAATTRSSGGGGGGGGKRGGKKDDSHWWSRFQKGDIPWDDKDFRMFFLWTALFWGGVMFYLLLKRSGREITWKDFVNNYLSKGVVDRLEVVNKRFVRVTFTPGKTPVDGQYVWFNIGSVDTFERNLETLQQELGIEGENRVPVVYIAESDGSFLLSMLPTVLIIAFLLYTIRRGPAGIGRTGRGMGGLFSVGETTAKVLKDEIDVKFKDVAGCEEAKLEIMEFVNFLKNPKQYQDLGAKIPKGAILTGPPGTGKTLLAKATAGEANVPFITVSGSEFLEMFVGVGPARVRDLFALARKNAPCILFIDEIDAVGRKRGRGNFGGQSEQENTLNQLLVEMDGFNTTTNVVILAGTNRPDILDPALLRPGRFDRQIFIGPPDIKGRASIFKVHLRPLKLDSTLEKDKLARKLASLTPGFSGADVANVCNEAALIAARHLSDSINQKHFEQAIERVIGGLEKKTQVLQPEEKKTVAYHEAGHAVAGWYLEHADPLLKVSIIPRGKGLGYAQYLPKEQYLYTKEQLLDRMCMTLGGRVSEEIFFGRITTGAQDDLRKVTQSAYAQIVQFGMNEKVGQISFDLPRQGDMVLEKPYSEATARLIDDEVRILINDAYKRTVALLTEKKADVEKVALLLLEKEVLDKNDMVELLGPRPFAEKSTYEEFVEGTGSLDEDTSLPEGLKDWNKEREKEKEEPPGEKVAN

Molecular target: T1, OCIAD1_(FLAG) (ovarian cancer immunoreactive antigen domain-containing protein 1, FLAG-tagged) (human) (UniProt Q9NX40)
T1 sequence: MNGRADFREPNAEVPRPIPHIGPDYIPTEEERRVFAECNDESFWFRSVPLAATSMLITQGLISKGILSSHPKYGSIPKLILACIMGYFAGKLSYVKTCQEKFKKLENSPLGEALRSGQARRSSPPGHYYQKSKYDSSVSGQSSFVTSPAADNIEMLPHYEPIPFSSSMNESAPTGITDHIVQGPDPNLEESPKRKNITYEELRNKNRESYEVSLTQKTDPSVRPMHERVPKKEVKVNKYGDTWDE
Experiment: affinity purification with mass spectrometry; mitochondria of HEK293 cells expressing OCIAD1_(FLAG) or an empty vector, solubilised in 1% digitonin buffer (150 mM NaCl, 10% glycerol, 1 mM EDTA, 50 mM Tris-HCl pH 7.4), anti-FLAG M2 affinity gel 2 h at 4°C, eluted with FLAG peptide, TMT labelling, LC-MS/MS (n = 3)

binding: binds
Substance: AFG3L2 (endogenous) (from UniProt Q9Y4W6 67-797) (enzyme)
